Assay results published in patent publication US7037662.
These are yes or no findings as the source states them, for the method shown. Some entries that bind do so weakly or less than the wild type. Where a sequence is shown, tags or fusion partners need not be part of it.

How the values were obtained:
[1] = target: T1, soluble HEK (sHEK), complete extracellular domain (exodomain) of HEK encoded by exons I-VII (human) (UniProt P29320); assay: BIAcore, LERK-Fc fusion over sensor chip-immobilised HEK exodomain
T1 sequence (looked up): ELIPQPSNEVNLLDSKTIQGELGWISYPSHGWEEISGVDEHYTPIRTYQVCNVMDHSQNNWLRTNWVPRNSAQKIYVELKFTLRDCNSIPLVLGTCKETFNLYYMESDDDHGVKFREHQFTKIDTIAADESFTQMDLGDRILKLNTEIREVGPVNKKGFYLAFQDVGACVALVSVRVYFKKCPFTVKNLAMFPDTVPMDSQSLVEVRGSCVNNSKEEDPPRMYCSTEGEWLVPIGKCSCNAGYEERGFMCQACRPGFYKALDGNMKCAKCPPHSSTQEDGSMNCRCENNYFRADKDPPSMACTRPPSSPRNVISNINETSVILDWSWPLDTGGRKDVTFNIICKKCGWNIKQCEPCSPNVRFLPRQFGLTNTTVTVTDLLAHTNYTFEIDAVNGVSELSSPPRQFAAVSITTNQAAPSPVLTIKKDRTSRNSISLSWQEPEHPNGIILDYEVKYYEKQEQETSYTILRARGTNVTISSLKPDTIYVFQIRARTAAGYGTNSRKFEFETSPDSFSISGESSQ

[2] = target: T1, soluble HEK (sHEK), complete extracellular domain (exodomain) of HEK encoded by exons I-VII (human); assay: BIAcore, LERK-Fc fusion at 10 µg/ml over sensor chip-immobilised HEK exodomain
[3] = target: T1, soluble HEK (sHEK), complete extracellular domain (exodomain) of HEK encoded by exons I-VII (human); assay: BIAcore, LERK-Fc over HEK-derivatised sensor chip
[4] = target: T1, soluble HEK (sHEK), complete extracellular domain (exodomain) of HEK encoded by exons I-VII (human); assay: BIAcore; Fc fusion protein at 10 µg/ml (50 µl) on an sHEK-derivatised sensor chip; response 20 s after the end of the injection

Measured: binding

B1: LERK 2-Fc fusion protein (Fc fusion, UniProt P98172 28-237, looked up, not shown: a dimerising Fc or GST)
chain: LAKNLEPVSWSSLNPKFLSGKGLVIYPKIGDKLDIICPRAEAGRPYEYYKLYLVRPEQAAACSTVLDPNVLVTCNRPEQEIRFTIKFQEFSPNYMGLEFKKHHDYYITSTSNGSLEGLENREGGVCRTRTMKIIMKVGQDPNAVTPEQLTTSRPSKEADNTVKMATQAPGSRGSLGDSDGKHETVNQEEKSGPGASGGSSGDPDGFFNSK
binds: [1] | [2] | [3] | [4]

B2: LERK 4-Fc fusion protein (Fc fusion, UniProt P52798 26-170, looked up, not shown: a dimerising Fc or GST)
chain: LRHVVYWNSSNPRLLRGDAVVELGLNDYLDIVCPHYEGPGPPEGPETFALYMVDWPGYESCQAEGPRAYKRWVCSLPFGHVQFSEKIQRFTPFSLGFEFLPGETYYYISVPTPESSGQCLRLQVSVCCKERKSESAHPVGSPGES
binds: [1] | [3] | [4]
